Test results published in patent US20210052703A1 (SHANGHAI BENEMAE PHARMACEUTICAL CORPORATION, priority 2018, published 2021).

What was measured:
[1] = tested on: Sprague-Dawley (SD) rats; test: stomach emptying in male and female SD rats, various dosages (Example 6); details: X ± SE
[2] = tested on: male diet induced obesity (DIO) mice; details: X ± SE

## CC[C@H](C)[C@H](NC(=O)[C@H](Cc1ccccc1)NC(=O)[C@H](CCC(=O)O)NC(=O)[C@H](CCCCN)NC(=O)[C@H](C)NC(=O)[C@H](C)NC(=O)[C@H](CCC(N)=O)NC(=O)CNC(=O)[C@H](CCC(=O)O)NC(=O)[C@H](CC(C)C)NC(=O)[C@H](Cc1ccc(O)cc1)NC(=O)[C@H](CO)NC(=O)[C@H](CO)NC(=O)[C@@H](NC(=O)[C@H](CC(=O)O)NC(=O)[C@H](CO)NC(=O)[C@@H](NC(=O)[C@H](Cc1ccccc1)NC(=O)[C@@H](NC(=O)CNC(=O)[C@H](CCC(=O)O)NC(=O)[C@H](C)NC(=O)[C@@H](N)Cc1c[nH]cn1)[C@@H](C)O)[C@@H](C)O)C(C)C)C(=O)N[C@@H](C)C(=O)N[C@@H](Cc1c[nH]c2ccccc12)C(=O)N[C@@H](CC(C)C)C(=O)N[C@H](C(=O)N[C@@H](CCCCN)C(=O)NCC(=O)N[C@@H](CCCNC(=N)N)C(=O)O)C(C)C [Beinaglutide]
[1]; female rats, 10 μg/kg subcutaneous
  Entire Length of Intestine: 106.51 ± 1.64 cm
[1]; female rats, 12.5 μg/kg subcutaneous
  Entire Length of Intestine: 105.72 ± 0.42 cm
[1]; female rats, 15 μg/kg subcutaneous
  Entire Length of Intestine: 107.88 ± 2.05 cm
[1]; female rats, 30 μg/kg subcutaneous
  Entire Length of Intestine: 106.90 ± 1.36 cm
[1]; female rats, 45 μg/kg subcutaneous
  Entire Length of Intestine: 107.48 ± 1.06 cm
[1]; female rats, 60 μg/kg subcutaneous
  Entire Length of Intestine: 108.24 ± 1.42 cm
[1]; male rats, 10 μg/kg subcutaneous
  Entire Length of Intestine: 108.83 ± 2.57 cm
[1]; male rats, 12.5 μg/kg subcutaneous
  Entire Length of Intestine: 108.98 ± 2.28 cm
[1]; male rats, 15 μg/kg subcutaneous
  Entire Length of Intestine: 108.15 ± 2.21 cm
[1]; male rats, 30 μg/kg subcutaneous
  Entire Length of Intestine: 111.63 ± 1.57 cm
[1]; male rats, 45 μg/kg subcutaneous
  Entire Length of Intestine: 108.99 ± 2.37 cm
[1]; male rats, 60 μg/kg subcutaneous
  Entire Length of Intestine: 111.16 ± 1.49 cm
[2]; 15 μg/kg
  Entire Length of Intestine: 43.57 ± 0.87 cm
[2]; 20 μg/kg
  Entire Length of Intestine: 41.36 ± 1.15 cm
[2]; 25 μg/kg
  Entire Length of Intestine: 42.14 ± 1.23 cm
[2]; 50 μg/kg
  Entire Length of Intestine: 42.00 ± 0.53 cm
[2]; 75 μg/kg
  Entire Length of Intestine: 42.86 ± 0.77 cm
[2]; 100 μg/kg
  Entire Length of Intestine: 42.71 ± 0.89 cm

Read-outs that look alike come from different tables or passages of the source.
